The record followed here is paper PMC4125160, “Neurotoxicity and Mode of Action of N, N-Diethyl-Meta-Toluamide (DEET)” (PLoS ONE, 2014).

This experiment relates to housefly larval central nervous system. The experiment in a line: Neurophysiological recordings of CNS nerve discharge in housefly larvae. The conditions noted are these: Musca domestica; inhibition of nerve discharge; read-out: EC50, inhibitory effect on the CNS. The procedure:
Neurophysiological recordings were performed on the central and peripheral nervous systems of larval Musca domestica. Glass pipette electrodes were pulled from borosilicate glass capillaries on a P-1000 Flaming/Brown micropipette puller (Sutter Instrument, Novato CA, USA). For CNS recordings, it was first excised from the larvae and placed in a separate dish with physiological saline (200 µL) containing: 157 mM NaCl, 3 mM KCl, 2 mM CaCl2, and 4 mM HEPES, pH = 7.25. The CNS was manually transected posterior to the cerebral lobes to disrupt the blood-brain barrier and enhance chemical penetration. Any convenient peripheral nerve trunks were pulled into a recording suction electrode. […] Each concentration was recorded for 3–5 min prior to the addition of the next drug concentration. Mean spike frequencies for each concentration were used to construct concentration-response curves to determine EC50 values (EC50 = concentration of drug to elicit half maximal response, positive Hill slope), and were calculated by nonlinear regression (variable slope) using GraphPad Prism (GraphPad Software, San Diego, CA, USA) in a manner similar to that for AChE inhibition. […]

A word on the EC50: it is the concentration at which the effect is half-maximal. Consider `CCN(CC)CC(=O)Nc1c(C)cccc1C` [Lidocaine, lidocaine], for which the concentration for a half-maximal effect (EC50) amounted to 340 µM.
